Results on 23 molecules are retold here after PubChem BioAssay AID328 (DTP/NCI, 2004).

The subject of this experiment is BDF1 mice, P388 leukemia ip, median survival T/C. In words: NCI In Vivo Anticancer Drug Screen. Data for tumor model P388 Leukemia (intraperitoneal) in B6D2F1 (BDF1) mice. To be noted: T/C endpoint: median survival time, higher T/C = longer survival. The method in brief: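 Steps: implant the tumour, treat one group with compound and another with vehicle, record survival, then divide treated by control.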

[1] abbreviates: dose: 50.0 mg/kg/injection, schedule: Q01DX009 (ip), vehicle: saline with Tween-80.
The mark [2] stands for this setting: dose: 100.0 mg/kg/injection, schedule: Q04DX003 (ip), vehicle: saline with Tween-80.
The mark [3] stands for this setting: dose: 200.0 mg/kg/injection, schedule: Q04DX003 (ip), vehicle: Klucel (hydroxypropylcellulose) (HPC).
The mark [4] stands for this setting: dose: 400.0 mg/kg/injection, schedule: Q04DX003 (ip), vehicle: saline with Tween-80.

The list does not hold the whole screen: it gathers tests that were run many times, whatever their T/C, doses with no T/C, and many T/C values between a quarter and a half above the control. Other doses and runs of a compound stand elsewhere. T/C gives the treated animals as a percentage of the vehicle group. Some doses have a count of surviving animals in place of a T/C: the source files T/C as zero there, which appears to mark a toxic dose or a test without result, not a measured value. Some doses without a T/C left all or most animals alive at the check, yet need not have been tolerated: the source hardly ever lists a survival T/C far under the control, and the zero likely stands for such cases as well. Survivors were counted at the toxicity check, usually on the fifth day, unless a day is given; later deaths do not show. Schedules are NCI's codes, read here as Q, the interval in days (D) or hours (H), X, the number of doses. Some entries hold several experiments; their values stand side by side, smallest first. For survival time, the PubChem record calls one and a half times the control and up active, and a quarter to a half above the control has no call in these data; cut-offs in other NCI protocols can differ. Some T/C values are followed by the survivors on the day toxicity was checked, most often the fifth; without a count, all were alive then.

Turning to `CCNC(C)(C)C(SSS)c1ccco1` (stereo not given), the survivor count (dose: 200.0 mg/kg/injection, schedule: Q01DX009 (ip), vehicle: gum acacia) was 6 of 6 and the survivor count (dose: 300.0 mg/kg/injection, schedule: Q01DX009 (ip), vehicle: gum acacia) is on record as 3 of 6. Besides, under “dose: 200.0 mg/kg/injection, schedule: Q04DX003 (ip), vehicle: gum acacia”, the T/C is 129 % of control.

Consider `CC(C)CC(CC(C)C)NCC(C)OC(=O)c1ccc(N)cc1` (stereo not given), for which the survivor count is on record as 6 of 6 (dose: 12.5 mg/kg/injection, schedule: Q04DX003 (ip), vehicle: saline with Tween-80); 6 of 6 (dose: 25.0 mg/kg/injection, schedule: Q04DX003 (ip), vehicle: saline with Tween-80); 3 of 6 under setting [1]; 5 of 6 (dose: 50.0 mg/kg/injection, schedule: Q04DX003 (ip), vehicle: saline with Tween-80); 1 of 6 (dose: 100.0 mg/kg/injection, schedule: Q01DX009 (ip), vehicle: saline with Tween-80); 1 of 6 under setting [2].

Turning to `CC(C)Cn1c(Cl)c(/C=N\Nc2ccccc2[N+](=O)[O-])c2ccccc21`, where the note is “dose: 400.0 mg/kg/injection, schedule: Q04DX002 (ip), vehicle: Klucel (hydroxypropylcellulose) (HPC)”, the survivor count was 5 of 6.

Turning to `CC1=CC23C(COC(=O)C24CO4)C(C(=O)O)=CC3C1C` (stereo not given), the survivor count (dose: 2.5 mg/kg/injection, schedule: Q01DX009 (ip), vehicle: Klucel (hydroxypropylcellulose) (HPC)) is listed as 2 of 3 and the survivor count (dose: 5.0 mg/kg/injection, schedule: Q01DX009 (ip), vehicle: Klucel (hydroxypropylcellulose) (HPC)) was 2 of 3.

As to `O=C1C(C2CCCCC2)CCCC1C1CCCCC1` (stereo not given), under “dose: 400.0 mg/kg/injection, schedule: Q01DX001 (ip), vehicle: saline with Tween-80”, the survivor count is 6 of 6.

In the case of `Nc1ncc(C(=O)O)c(N)n1`, the survivor count is on record as 6 of 6 (dose: 3.12 mg/kg/injection, schedule: Q01DX009 (ip), vehicle: saline with Tween-80); 6 of 6 (dose: 12.5 mg/kg/injection, schedule: Q01DX009 (ip), vehicle: saline with Tween-80); 6 of 6 under setting [1].

In the case of `CC(=O)[C@H]1CC[C@H]2[C@@H]3C[C@H](F)C4=CC(=O)CC[C@]4(C)[C@@]3(F)[C@@H](O)C[C@]12C`, the survivor count runs as follows: (dose: 100.0 mg/kg/injection, schedule: Q01DX009 (ip), vehicle: Klucel (hydroxypropylcellulose) (HPC)) 5 of 6 and 6 of 6; (dose: 100.0 mg/kg/injection, schedule: Q04DX003 (ip), vehicle: Klucel (hydroxypropylcellulose) (HPC)) 5 of 6; (dose: 200.0 mg/kg/injection, schedule: Q01DX009 (ip), vehicle: Klucel (hydroxypropylcellulose) (HPC)) 6 of 6; under setting [3], 5 of 6; (dose: 400.0 mg/kg/injection, schedule: Q01DX009 (ip), vehicle: Klucel (hydroxypropylcellulose) (HPC)) 5 of 6 and 6 of 6.

For the molecule `Cc1ncc([N+](=O)[O-])n1CCN=[N+]=[N-]`, the T/C under setting [4] was 132 % of control.

For the molecule `O=c1[nH]c(=O)c(C2OC(CO)C(O)C2O)co1` (stereo not given), the T/C is, setting by setting: (dose: 4.0 mg/kg/injection, schedule: Q04DX003 (ip), vehicle: saline with Tween-80) 133 % of control; (dose: 5.0 mg/kg/injection, schedule: Q04DX003 (ip), vehicle: saline with Tween-80) 133 % of control; (dose: 6.0 mg/kg/injection, schedule: Q04DX003 (ip), vehicle: saline with Tween-80) 133 % of control; (dose: 6.7 mg/kg/injection, schedule: Q04DX003 (ip), vehicle: saline with Tween-80) 137 % of control; (dose: 10.0 mg/kg/injection, schedule: Q04DX003 (ip), vehicle: saline with Tween-80) 137 and 141 % of control; (dose: 15.0 mg/kg/injection, schedule: Q04DX003 (ip), vehicle: saline with Tween-80) 145 % of control.

With `COC(=O)C12OCC34C(CC5=C(C)C(=O)C(O)=CC5(C)C3C(O)C1O)OC(=O)C(OC(=O)/C=C(\C)C(C)C)C24` (stereo not given), the T/C (dose: 125.0 micrograms/kg/injection, schedule: Q01DX009 (ip), vehicle: saline + alcohol) is 135 % of control.

As to `Cc1ccc(NC(=S)NCCc2ccccn2)cc1C`, for the setting “dose: 400.0 mg/kg/injection, schedule: Q01DX009 (ip), vehicle: saline with Tween-80”, the T/C is 126 % of control.

`CC1C[N-]CC(C)C1.CC1C[N-]CC(C)C1.[Cl][Pt+2]([Cl])([Cl])[Cl]` (stereo not given): the T/C is 143 % of control (dose: 3.12 mg/kg/injection, schedule: Q01DX009 (ip), vehicle: saline); 136 % of control (dose: 6.25 mg/kg/injection, schedule: Q01DX009 (ip), vehicle: saline); 139 % of control (dose: 12.5 mg/kg/injection, schedule: Q01DX009 (ip), vehicle: saline); 148 % of control (dose: 25.0 mg/kg/injection, schedule: Q01DX009 (ip), vehicle: saline, evaluated on day 30); 136 % of control (dose: 25.0 mg/kg/injection, schedule: Q01DX009 (ip), vehicle: saline, evaluated on day 32); 139 % of control [5 of 6 alive] (dose: 50.0 mg/kg/injection, schedule: Q01DX009 (ip), vehicle: saline). Also, where the note is “dose: 100.0 mg/kg/injection, schedule: Q01DX009 (ip), vehicle: saline”, the survivor count is given as 1 of 6.

Regarding `COCCNCCN1CCN(CCCN2c3ccccc3Sc3ccc(C(F)(F)F)cc32)CC1`, the survivor count (dose: 80.0 mg/kg/injection, schedule: Q04DX003 (ip), vehicle: saline) is given as 4 of 6.

`Cc1c(Cl)cc(Cl)c(N)c1Cl`: the survivor count under setting [2] is reported as 5 of 6.

On to `CC1(C)N=C(N)N=C(N)N1c1ccc(CCc2ccc(S(=O)(=O)F)cc2)c(Cl)c1`, for which the T/C reads like this: (dose: 25.0 mg/kg/injection, schedule: Q01DX009 (ip), vehicle: saline with Tween-80) 145 % of control; under setting [1], 145 % of control [5 of 6 alive]; (dose: 50.0 mg/kg/injection, schedule: Q04DX003 (ip), vehicle: saline sonified) 136 % of control [5 of 6 alive]; (dose: 75.0 mg/kg/injection, schedule: Q04DX003 (ip), vehicle: saline sonified) 145 % of control [4 of 6 alive].

With `CCn1nnc2c(N(C)C)nc(N)nc21`, the survivor count under setting [3] is given as 0 of 6.

Regarding `COC1C(=O)CCC2(CO2)C1(O)C1(C)OC1CCC(C)C` (stereo not given), the survivor count (dose: 175.0 mg/kg/injection, schedule: Q01DX009 (ip), vehicle: saline with Tween-80) was 2 of 3 and the survivor count (dose: 350.0 mg/kg/injection, schedule: Q01DX009 (ip), vehicle: saline with Tween-80) is recorded as 0 of 3.

In the case of `O=NN(CCCl)C(=O)Nc1ccc2c3c(cccc13)-c1ccccc1-2`, the T/C (dose: 25.0 mg/kg/injection, schedule: Q01DX009 (ip), vehicle: Klucel (hydroxypropylcellulose) (HPC)) was 142 % of control.

For the molecule `CC[C@@]12CCCN3CC[C@]4(c5cccc(OC)c5N(C(C)=O)[C@@H]4CC1)[C@H]32`, the survivor count (dose: 50.0 mg/kg/injection, schedule: Q01DX009 (ip), vehicle: Klucel (hydroxypropylcellulose) (HPC)) is 0 of 6.

As for `C[n+]1c(-c2cc(N)cc(C(F)(F)F)c2)c2cc(N)ccc2c2ccc(N)cc21`, the survivor count was 5 of 5 (dose: 50.0 mg/kg/injection, schedule: Q01DX009 (ip), vehicle: water) and 0 of 5 (dose: 100.0 mg/kg/injection, schedule: Q01DX009 (ip), vehicle: water).

`CC(=O)N1C(=O)NC(=O)C1(C)c1ccc(Cl)s1` (stereo not given): under setting [4], the survivor count was 6 of 6.

As to `O=[N+]([O-])c1ccc(S(=O)(=O)c2ccc([N+](=O)[O-])c3no[n+]([O-])c23)cc1`, under “dose: 60.0 mg/kg/injection, schedule: Q01DX009 (ip), vehicle: saline with Tween-80”, the survivor count was 4 of 7.

Regarding `CN1CCC(CN2c3ccccc3Sc3ccccc32)CC1`, the survivor count was 6 of 6 (dose: 1.56 mg/kg/injection, schedule: Q01DX009 (ip), vehicle: Klucel (hydroxypropylcellulose) (HPC)); 6 of 6 (dose: 6.25 mg/kg/injection, schedule: Q01DX009 (ip), vehicle: Klucel (hydroxypropylcellulose) (HPC)); 0 of 6 under setting [4].
